The text below walks through data of publication PMC5727025.

Assay [1] deals with T1, Interferon regulatory factor 4 (IRF4) (mouse (endogenous in Th9 cells)) (UniProt Q64287).
T1 sequence: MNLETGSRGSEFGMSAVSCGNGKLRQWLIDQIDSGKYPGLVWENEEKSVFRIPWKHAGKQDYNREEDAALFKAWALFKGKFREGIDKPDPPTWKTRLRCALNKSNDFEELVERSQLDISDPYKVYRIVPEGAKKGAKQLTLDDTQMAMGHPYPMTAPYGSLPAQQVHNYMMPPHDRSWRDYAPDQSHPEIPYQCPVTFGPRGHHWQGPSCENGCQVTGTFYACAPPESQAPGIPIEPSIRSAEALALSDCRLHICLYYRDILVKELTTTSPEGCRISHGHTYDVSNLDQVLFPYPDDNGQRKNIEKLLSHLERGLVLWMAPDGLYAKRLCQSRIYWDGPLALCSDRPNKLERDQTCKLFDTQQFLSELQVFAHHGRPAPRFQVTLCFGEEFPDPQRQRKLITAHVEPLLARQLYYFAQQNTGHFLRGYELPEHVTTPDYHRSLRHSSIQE
The assay is described as follows: proximity ligation; in situ PLA in fixed, permeabilised murine Th9 cells after 24 h of differentiation; dots counted by microscopy.

In assay [2] the target is T2, Interferon regulatory factor 8 (IRF8) (mouse (endogenous in Th9 cells)) (UniProt P23611).
T2 sequence: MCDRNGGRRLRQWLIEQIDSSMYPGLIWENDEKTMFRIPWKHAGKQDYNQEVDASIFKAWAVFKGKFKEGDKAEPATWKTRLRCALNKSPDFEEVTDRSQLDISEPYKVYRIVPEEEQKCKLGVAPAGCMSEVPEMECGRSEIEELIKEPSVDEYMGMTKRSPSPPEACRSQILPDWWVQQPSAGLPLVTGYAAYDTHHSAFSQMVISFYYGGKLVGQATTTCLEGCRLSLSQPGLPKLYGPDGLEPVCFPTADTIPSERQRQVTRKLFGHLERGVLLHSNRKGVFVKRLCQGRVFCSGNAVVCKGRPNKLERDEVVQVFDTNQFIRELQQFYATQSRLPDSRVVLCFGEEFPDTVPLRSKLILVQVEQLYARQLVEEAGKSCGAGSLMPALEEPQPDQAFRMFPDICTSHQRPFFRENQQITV
The assay is described as above.

These are yes or no findings as the source states them, for the method shown. In cells and extracts the contact can be indirect. Some binding calls cover weakened binding; strength is not graded here.

B1: BATF (basic leucine zipper transcription factor, ATF-like) (protein, UniProt O35284 1-125)
chain: MPHSSDSSDSSFSRSPPPGKQDSSDDVRKVQRREKNRIAAQKSRQRQTQKADTLHLESEDLEKQNAALRKEIKQLTEELKYFTSVLSSHEPLCSVLASGTPSPPEVVYSAHAFHQPHISSPRFQP
Consider B1, for which the binding result in assay [1] and in assay [2] was “binds” each time.
